For assay [1], the target named is Met-Fc fusion protein (R&D Systems) labeled with Alexa 488 (UniProt P08581). Kind of assay: flow cytometry, yeast surface display, Met-Fc Alexa-488.
The target is the same in assay [2]. Description: flow cytometry, yeast surface display, Met-Fc Alexa-488 at 20, 0.2 and 0.04 nM. Background: In flow cytometry, cells or beads pass a laser one at a time.

The chains behind the UniProt entries cited, without tags or fusion partners. Where a name states a change or a piece, a line headed by the entry shows the natural chain unless it says otherwise. Residues count along the entry.
UniProt P08581, residues 25-932: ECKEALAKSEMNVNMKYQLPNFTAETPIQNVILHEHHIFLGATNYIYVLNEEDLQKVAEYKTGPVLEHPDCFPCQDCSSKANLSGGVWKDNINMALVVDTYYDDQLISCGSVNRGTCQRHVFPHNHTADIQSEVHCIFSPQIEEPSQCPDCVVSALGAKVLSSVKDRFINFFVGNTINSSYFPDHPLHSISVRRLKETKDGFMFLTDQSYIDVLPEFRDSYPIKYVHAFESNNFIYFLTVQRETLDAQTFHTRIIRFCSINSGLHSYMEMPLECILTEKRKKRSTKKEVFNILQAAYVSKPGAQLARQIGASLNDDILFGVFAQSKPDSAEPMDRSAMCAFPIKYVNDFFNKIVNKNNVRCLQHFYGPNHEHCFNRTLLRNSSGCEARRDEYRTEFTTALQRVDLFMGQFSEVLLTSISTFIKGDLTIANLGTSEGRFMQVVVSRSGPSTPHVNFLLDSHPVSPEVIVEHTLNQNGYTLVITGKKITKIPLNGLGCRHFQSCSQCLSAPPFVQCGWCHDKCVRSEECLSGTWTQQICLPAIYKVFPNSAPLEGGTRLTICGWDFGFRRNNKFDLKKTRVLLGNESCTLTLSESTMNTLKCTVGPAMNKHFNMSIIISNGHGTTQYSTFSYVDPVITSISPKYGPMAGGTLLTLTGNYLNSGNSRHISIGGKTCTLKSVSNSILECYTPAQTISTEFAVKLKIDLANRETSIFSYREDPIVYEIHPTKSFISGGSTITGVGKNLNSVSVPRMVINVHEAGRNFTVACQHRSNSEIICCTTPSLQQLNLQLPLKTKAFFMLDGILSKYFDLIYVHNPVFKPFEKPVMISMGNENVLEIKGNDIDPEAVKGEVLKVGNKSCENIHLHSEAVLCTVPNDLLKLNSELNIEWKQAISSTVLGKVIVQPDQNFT
UniProt P14210: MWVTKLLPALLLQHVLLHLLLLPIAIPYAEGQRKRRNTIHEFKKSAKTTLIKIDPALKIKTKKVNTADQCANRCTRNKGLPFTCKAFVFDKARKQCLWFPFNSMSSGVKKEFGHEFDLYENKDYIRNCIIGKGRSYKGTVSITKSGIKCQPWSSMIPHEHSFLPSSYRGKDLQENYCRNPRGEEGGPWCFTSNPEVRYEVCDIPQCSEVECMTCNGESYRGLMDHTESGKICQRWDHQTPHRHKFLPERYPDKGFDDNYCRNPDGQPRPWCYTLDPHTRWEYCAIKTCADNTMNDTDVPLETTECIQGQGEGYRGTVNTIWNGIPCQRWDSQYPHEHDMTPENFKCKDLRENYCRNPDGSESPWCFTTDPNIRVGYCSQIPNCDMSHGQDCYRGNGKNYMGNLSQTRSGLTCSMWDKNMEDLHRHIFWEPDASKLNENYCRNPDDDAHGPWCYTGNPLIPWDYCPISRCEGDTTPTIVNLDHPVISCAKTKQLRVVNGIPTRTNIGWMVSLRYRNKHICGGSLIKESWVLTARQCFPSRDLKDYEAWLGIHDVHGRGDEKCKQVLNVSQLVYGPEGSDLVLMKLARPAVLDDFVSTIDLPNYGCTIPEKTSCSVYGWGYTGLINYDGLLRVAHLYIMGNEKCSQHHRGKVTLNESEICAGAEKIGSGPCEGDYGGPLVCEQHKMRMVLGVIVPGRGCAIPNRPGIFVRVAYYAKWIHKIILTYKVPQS

Results are given in words; binding and its absence hold for the method and conditions named. Some binding calls cover weakened binding; strength is not graded here.

As for “Aras-4 M3S7.2.11 (yeast-displayed clone of the third round of directed evolution) (from UniProt P14210 28-210) (ligand)”, the binding entry in assay [1] is given as “binds”.

Take “yeast-displayed NK1 mutant M2.1 (from UniProt P14210 28-210) (ligand)”: in assay [2], the binding entry is recorded as “binds”.

For “yeast-displayed NK1 mutant M2.2 (from UniProt P14210 28-210) (ligand)”, the binding result in assay [2] was “binds”.

The values above are taken from patent US20170305985A1 (Stanford University, published 2017).
